PMC4673504
These are yes or no findings as the source states them, for the method shown. Binding seen in cells or lysates may run through a third protein. Binding can be weak; no strength is given. For part of these data: Sequences can lack the tags named with a protein.

target: FLAG-tagged GAL4–AF4-2C fusion protein (human); assay: co-IP; fanChIP–WB: chromatin fraction of 293T or 293T–LUC cells (cytoskeleton buffer extraction, MNase, lysis buffer), anti-FLAG M2 beads, five washes, western blot; SL1 components endogenous or exogenously expressed (one by one or all together); for the MLL fusions with co-expressed xAF4 and MENIN-HA

binding | Binder
binds | Xpress-tagged TAF1D (protein, UniProt Q9H5J8 1-278) MDKSGIDSLDHVTSDAVELANRSDNSSDSSLFKTQCIPYSPKGEKRNPIRKFVRTPESVHASDSSSDSSFEPIPLTIKAIFERFKNRKKRYKKKKKRRYQPTGRPRGRPEGRRNPIYSLIDKKKQFRSRGSGFPFLESENEKNAPWRKILTFEQAVARGFFNYIEKLKYEHHLKESLKQMNVGEDLENEDFDSRRYKFLDDDGSISPIEESTAEDEDATHLEDNECDIKLAGDSFIVSSEFPVRLSVYLEEEDITEEAALSKKRATKAKNTGQRGLKM
binds | Xpress-tagged TAF1B (protein, UniProt Q53T94 1-588) MDLEEAEEFKERCTQCAAVSWGLTDEGKYYCTSCHNVTERYQEVTNTDLIPNTQIKALNRGLKKKNNTEKGWDWYVCEGFQYILYQQAEALKNLGVGPELKNDVLHNFWKRYLQKSKQAYCKNPVYTTGRKPTVLEDNLSHSDWASEPELLSDVSCPPFLESGAESQSDIHTRKPFPVSKASQSETSVCSGSLDGVEYSQRKEKGIVKMTMPQTLAFCYLSLLWQREAITLSDLLRFVEEDHIPYINAFQHFPEQMKLYGRDRGIFGIESWPDYEDIYKKTVEVGTFLDLPRFPDITEDCYLHPNILCMKYLMEVNLPDEMHSLTCHVVKMTGMGEVDFLTFDPIAKMAKTVKYDVQAVAIIVVVLKLLFLLDDSFEWSLSNLAEKHNEKNKKDKPWFDFRKWYQIMKKAFDEKKQKWEEARAKYLWKSEKPLYYSFVDKPVAYKKREMVVNLQKQFSTLVESTATAGKKSPSSFQFNWTEEDTDRTCFHGHSLQGVLKEKGQSLLTKNSLYWLSTQKFCRCYCTHVTTYEESNYSLSYQFILNLFSFLLRIKTSLLHEEVSLVEKKLFEKKYSVKRKKSRSKKVRRH

Further lines, the binder ahead of its results:

Binder | binding
Xpress-tagged TAF1A (protein, UniProt Q15573 1-450) MSDFSEELKGPVTDDEEVETSVLSGAGMHFPWLQTYVETVAIGGKRRKDFAQTTSACLSFIQEALLKHQWQQAAEYMYSYFQTLEDSDSYKRQAAPEIIWKLGSEILFYHPKSNMESFNTFANRMKNIGVMNYLKISLQHALYLLHHGMLKDAKRNLSEAETWRHGENTSSREILINLIQAYKGLLQYYTWSEKKMELSKLDKDDYAYNAVAQDVFNHSWKTSANISALIKIPGVWDPFVKSYVEMLEFYGDRDGAQEVLTNYAYDEKFPSNPNAHIYLYNFLKRQKAPRSKLISVLKILYQIVPSHKLMLEFHTLLRKSEKEEHRKLGLEVLFGVLDFAGCTKNITAWKYLAKYLKNILMGNHLAWVQEEWNSRKNWWPGFHFSYFWAKSDWKEDTALACEKAFVAGLLLGKGCRYFRYILKQDHQILGKKIKRMKRSVKKYSIVNPRL | binds
HA-tagged TAF1C (protein, UniProt Q15572 1-869) MDFPSSLRPALFLTGPLGLSDVPDLSFMCSWRDALTLPEAQPQNSENGALHVTKDLLWEPATPGPLPMLPPLIDPWDPGLTARDLLFRGGCRYRKRPRVVLDVTEQISRFLLDHGDVAFAPLGKLMLENFKLEGAGSRTKKKTVVSVKKLLQDLGGHQPWGCPWAYLSNRQRRFSILGGPILGTSVASHLAELLHEELVLRWEQLLLDEACTGGALAWVPGRTPQFGQLVYPAGGAQDRLHFQEVVLTPGDNPQFLGKPGRIQLQGPVRQVVTCTVQGESKALIYTFLPHWLTCYLTPGPFHPSSALLAVRSDYHCAVWKFGKQWQPTLLQAMQVEKGATGISLSPHLPGELAICSRSGAVCLWSPEDGLRQIYRDPETLVFRDSSSWRWADFTAHPRVLTVGDRTGVKMLDTQGPPGCGLLLFRLGAEASCQKGERVLLTQYLGHSSPKCLPPTLHLVCTQFSLYLVDERLPLVPMLKWNHGLPSPLLLARLLPPPRPSCVQPLLLGGQGGQLQLLHLAGEGASVPRLAGPPQSLPSRIDSLPAFPLLEPKIQWRLQERLKAPTIGLAAVVPPLPSAPTPGLVLFQLSAAGDVFYQQLRPQVDSSLRRDAGPPGDTQPDCHAPTASWTSQDTAGCSQWLKALLKVPLAPPVWTAPTFTHRQMLGSTELRREEEEGQRLGVLRKAMARGQLLLQRDLGSLPAAEPPPAPESGLEDKLSERLGEAWAGRGAAWWERQQGRTSEPGRQTRRPKRRTQLSSSFSLSGHVDPSEDTSSPHSPEWPPADALPLPPTTPPSQELTPDACAQGVPSEQRQMLRDYMAKLPPQRDTPGCATTPPHSQASSVRATRSQQHTPVLSSSQPLRKKPRMGF | binds
TAF1C (endogenous) (protein, UniProt Q15572 1-869) MDFPSSLRPALFLTGPLGLSDVPDLSFMCSWRDALTLPEAQPQNSENGALHVTKDLLWEPATPGPLPMLPPLIDPWDPGLTARDLLFRGGCRYRKRPRVVLDVTEQISRFLLDHGDVAFAPLGKLMLENFKLEGAGSRTKKKTVVSVKKLLQDLGGHQPWGCPWAYLSNRQRRFSILGGPILGTSVASHLAELLHEELVLRWEQLLLDEACTGGALAWVPGRTPQFGQLVYPAGGAQDRLHFQEVVLTPGDNPQFLGKPGRIQLQGPVRQVVTCTVQGESKALIYTFLPHWLTCYLTPGPFHPSSALLAVRSDYHCAVWKFGKQWQPTLLQAMQVEKGATGISLSPHLPGELAICSRSGAVCLWSPEDGLRQIYRDPETLVFRDSSSWRWADFTAHPRVLTVGDRTGVKMLDTQGPPGCGLLLFRLGAEASCQKGERVLLTQYLGHSSPKCLPPTLHLVCTQFSLYLVDERLPLVPMLKWNHGLPSPLLLARLLPPPRPSCVQPLLLGGQGGQLQLLHLAGEGASVPRLAGPPQSLPSRIDSLPAFPLLEPKIQWRLQERLKAPTIGLAAVVPPLPSAPTPGLVLFQLSAAGDVFYQQLRPQVDSSLRRDAGPPGDTQPDCHAPTASWTSQDTAGCSQWLKALLKVPLAPPVWTAPTFTHRQMLGSTELRREEEEGQRLGVLRKAMARGQLLLQRDLGSLPAAEPPPAPESGLEDKLSERLGEAWAGRGAAWWERQQGRTSEPGRQTRRPKRRTQLSSSFSLSGHVDPSEDTSSPHSPEWPPADALPLPPTTPPSQELTPDACAQGVPSEQRQMLRDYMAKLPPQRDTPGCATTPPHSQASSVRATRSQQHTPVLSSSQPLRKKPRMGF | binds

target: FLAG-tagged GAL4–AF4-2N fusion protein (human); assay: as above

binding | Binder
binds | Eleven-nineteen lysine-rich leukemia protein (ELL) (protein, UniProt P55199 1-621) MAALKEDRSYGLSCGRVSDGSKVSVFHVKLTDSALRAFESYRARQDSVSLRPSIRFQGSQGHISIPQPDCPAEARTFSFYLSNIGRDNPQGSFDCIQQYVSSHGEVHLDCLGSIQDKITVCATDDSYQKARQSMAQAEEETRSRSAIVIKAGGRYLGKKVQFRKPAPGATDAVPSRKRATPINLASAIRKSGASAVSGGSGVSQRPFRDRVLHLLALRPYRKAELLLRLQKDGLTQADKDALDGLLQQVANMSAKDGTCTLQDCMYKDVQKDWPGYSEGDQQLLKRVLVRKLCQPQSTGSLLGDPAASSPPGERGRSASPPQKRLQPPDFIDPLANKKPRISHFTQRAQPAVNGKLGVPNGREALLPTPGPPASTDTLSSSTHLPPRLEPPRAHDPLADVSNDLGHSGRDCEHGEAAAPAPTVRLGLPLLTDCAQPSRPHGSPSRSKPKKKSKKHKDKERAAEDKPRAQLPDCAPATHATPGAPADTPGLNGTCSVSSVPTSTSETPDYLLKYAAISSSEQRQSYKNDFNAEYSEYRDLHARIERITRRFTQLDAQLRQLSQGSEEYETTRGQILQEYRKIKKTNTNYSQEKHRCEYLHSKLAHIKRLIAEYDQRQLQAWP
